In patent US20180079906A1 (Ecole Polytechnique Fédérale de Lausanne (EPFL), priority 2016, published 2018):

Experiment: general procedure: peptide synthesis; TSTU
Conditions: conjugation step

In the case of c(RGDfK), the conjugation yield (run 1) is reported as 60% and the conjugation yield (run 2) is reported as 62%.
